Source: publication doi:10.1101/2025.06.02.657518
Read-outs that look alike come from different tables or passages of the source. No constants are given. Whether binding was seen depends on the method and setting. In cells and extracts the contact can be indirect. Some binding calls cover weakened binding; strength is not graded here.

Sequences of proteins named here, by UniProt entry; tags and fusion partners are left off.
UniProt Q13485: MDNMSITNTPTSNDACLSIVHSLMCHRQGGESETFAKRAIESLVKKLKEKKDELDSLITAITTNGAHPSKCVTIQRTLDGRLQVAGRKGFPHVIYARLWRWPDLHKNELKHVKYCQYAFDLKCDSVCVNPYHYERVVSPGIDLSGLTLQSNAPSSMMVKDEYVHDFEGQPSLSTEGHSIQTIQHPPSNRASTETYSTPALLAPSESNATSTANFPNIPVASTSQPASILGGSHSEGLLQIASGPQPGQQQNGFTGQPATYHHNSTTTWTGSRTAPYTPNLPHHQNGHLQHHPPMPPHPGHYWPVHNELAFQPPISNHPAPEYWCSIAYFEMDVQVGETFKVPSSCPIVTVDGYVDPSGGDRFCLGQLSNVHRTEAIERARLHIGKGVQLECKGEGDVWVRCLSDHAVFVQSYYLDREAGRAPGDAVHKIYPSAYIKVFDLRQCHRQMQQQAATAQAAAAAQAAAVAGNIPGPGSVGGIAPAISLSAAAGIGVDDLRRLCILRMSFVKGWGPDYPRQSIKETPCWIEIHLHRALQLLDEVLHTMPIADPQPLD
UniProt P35222: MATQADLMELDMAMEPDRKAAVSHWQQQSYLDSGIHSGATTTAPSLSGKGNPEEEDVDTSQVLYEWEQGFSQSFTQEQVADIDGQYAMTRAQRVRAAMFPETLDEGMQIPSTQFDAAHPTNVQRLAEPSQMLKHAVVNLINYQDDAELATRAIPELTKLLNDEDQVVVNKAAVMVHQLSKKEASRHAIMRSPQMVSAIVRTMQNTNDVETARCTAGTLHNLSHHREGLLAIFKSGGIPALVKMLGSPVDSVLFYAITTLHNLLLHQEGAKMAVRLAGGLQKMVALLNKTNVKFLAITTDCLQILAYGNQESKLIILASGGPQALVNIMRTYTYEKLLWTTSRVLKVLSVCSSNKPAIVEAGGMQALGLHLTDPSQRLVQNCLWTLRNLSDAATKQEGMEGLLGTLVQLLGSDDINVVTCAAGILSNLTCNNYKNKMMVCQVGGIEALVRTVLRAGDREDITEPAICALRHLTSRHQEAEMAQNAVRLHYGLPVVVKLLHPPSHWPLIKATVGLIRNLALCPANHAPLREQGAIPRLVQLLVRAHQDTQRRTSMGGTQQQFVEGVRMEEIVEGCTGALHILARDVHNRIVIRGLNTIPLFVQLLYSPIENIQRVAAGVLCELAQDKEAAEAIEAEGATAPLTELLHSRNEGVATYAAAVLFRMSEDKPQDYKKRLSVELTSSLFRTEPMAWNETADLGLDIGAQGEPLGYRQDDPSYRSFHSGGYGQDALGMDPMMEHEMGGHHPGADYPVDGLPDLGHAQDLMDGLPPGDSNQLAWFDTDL
UniProt Q93009: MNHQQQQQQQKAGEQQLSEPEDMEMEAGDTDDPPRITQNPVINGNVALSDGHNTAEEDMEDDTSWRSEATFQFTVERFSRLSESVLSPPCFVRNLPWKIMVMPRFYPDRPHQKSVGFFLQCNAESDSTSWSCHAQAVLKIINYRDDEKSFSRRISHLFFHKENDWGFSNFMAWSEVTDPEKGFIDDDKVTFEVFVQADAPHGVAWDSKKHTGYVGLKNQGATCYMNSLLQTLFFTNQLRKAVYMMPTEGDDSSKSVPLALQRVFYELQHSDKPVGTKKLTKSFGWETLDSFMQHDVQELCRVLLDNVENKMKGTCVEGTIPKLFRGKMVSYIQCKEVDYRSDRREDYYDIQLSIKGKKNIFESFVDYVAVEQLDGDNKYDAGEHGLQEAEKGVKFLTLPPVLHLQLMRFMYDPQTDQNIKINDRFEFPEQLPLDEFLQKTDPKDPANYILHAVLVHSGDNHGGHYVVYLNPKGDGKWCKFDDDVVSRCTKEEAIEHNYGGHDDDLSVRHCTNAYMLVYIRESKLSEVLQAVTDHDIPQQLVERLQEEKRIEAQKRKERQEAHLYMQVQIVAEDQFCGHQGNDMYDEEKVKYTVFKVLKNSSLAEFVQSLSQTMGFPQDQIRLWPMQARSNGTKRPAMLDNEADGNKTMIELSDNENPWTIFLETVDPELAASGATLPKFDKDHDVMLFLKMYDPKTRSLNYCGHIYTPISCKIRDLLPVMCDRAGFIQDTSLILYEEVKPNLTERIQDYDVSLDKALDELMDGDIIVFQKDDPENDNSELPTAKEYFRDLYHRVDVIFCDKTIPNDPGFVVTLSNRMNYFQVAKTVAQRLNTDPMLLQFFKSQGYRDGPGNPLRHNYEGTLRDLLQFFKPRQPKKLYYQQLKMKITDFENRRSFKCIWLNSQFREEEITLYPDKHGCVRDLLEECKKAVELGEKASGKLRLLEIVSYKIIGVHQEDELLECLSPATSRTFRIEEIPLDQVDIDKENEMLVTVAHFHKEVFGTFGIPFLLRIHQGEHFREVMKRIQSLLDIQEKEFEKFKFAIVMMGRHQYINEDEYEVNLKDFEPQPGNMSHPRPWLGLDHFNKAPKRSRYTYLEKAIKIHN

B1: ERC1 (cloned, immunoprecipitation) (protein, UniProt Q8IUD2 1-1116)
chain: MYGSARSVGKVEPSSQSPGRSPRLPRSPRLGHRRTNSTGGSSGSSVGGGSGKTLSMENIQSLNAAYATSGPMYLSDHENVGSETPKSTMTLGRSGGRLPYGVRMTAMGSSPNIASSGVASDTIAFGEHHLPPVSMASTVPHSLRQARDNTIMDLQTQLKEVLRENDLLRKDVEVKESKLSSSMNSIKTFWSPELKKERALRKDEASKITIWKEQYRVVQEENQHMQMTIQALQDELRIQRDLNQLFQQDSSSRTGEPCVAELTEENFQRLHAEHERQAKELFLLRKTLEEMELRIETQKQTLNARDESIKKLLEMLQSKGLSAKATEEDHERTRRLAEAEMHVHHLESLLEQKEKENSMLREEMHRRFENAPDSAKTKALQTVIEMKDSKISSMERGLRDLEEEIQMLKSNGALSTEEREEEMKQMEVYRSHSKFMKNKVEQLKEELSSKEAQWEELKKKAAGLQAEIGQVKQELSRKDTELLALQTKLETLTNQFSDSKQHIEVLKESLTAKEQRAAILQTEVDALRLRLEEKETMLNKKTKQIQDMAEEKGTQAGEIHDLKDMLDVKERKVNVLQKKIENLQEQLRDKEKQMSSLKERVKSLQADTTNTDTALTTLEEALAEKERTIERLKEQRDRDEREKQEEIDNYKKDLKDLKEKVSLLQGDLSEKEASLLDLKEHASSLASSGLKKDSRLKTLEIALEQKKEECLKMESQLKKAHEAALEARASPEMSDRIQHLEREITRYKDESSKAQAEVDRLLEILKEVENEKNDKDKKIAELERQVKDQNKKVANLKHKEQVEKKKSAQMLEEARRREDNLNDSSQQLQDSLRKKDDRIEELEEALRESVQITAEREMVLAQEESARTNAEKQVEELLMAMEKVKQELESMKAKLSSTQQSLAEKETHLTNLRAERRKHLEEVLEMKQEALLAAISEKDANIALLELSSSKKKTQEEVAALKREKDRLVQQLKQQTQNRMKLMADNYEDDHFKSSHSNQTNHKPSPDQIIQPLLELDQNRSKLKLYIGHLTTLCHDRDPLILRGLTPPASYNLDDDQAAWENELQKMTRGQLQDELEKGERDNAELQEFANAILQQIADHCPDILEQVVNALEESS
B2: TRIM33 (cloned, immunoprecipitation) (protein, UniProt Q9UPN9 1-1127)
chain: MAENKGGGEAESGGGGSGSAPVTAGAAGPAAQEAEPPLTAVLVEEEEEEGGRAGAEGGAAGPDDGGVAAASSGSAQAASSPAASVGTGVAGGAVSTPAPAPASAPAPGPSAGPPPGPPASLLDTCAVCQQSLQSRREAEPKLLPCLHSFCLRCLPEPERQLSVPIPGGSNGDIQQVGVIRCPVCRQECRQIDLVDNYFVKDTSEAPSSSDEKSEQVCTSCEDNASAVGFCVECGEWLCKTCIEAHQRVKFTKDHLIRKKEDVSESVGASGQRPVFCPVHKQEQLKLFCETCDRLTCRDCQLLEHKEHRYQFLEEAFQNQKGAIENLLAKLLEKKNYVHFAATQVQNRIKEVNETNKRVEQEIKVAIFTLINEINKKGKSLLQQLENVTKERQMKLLQQQNDITGLSRQVKHVMNFTNWAIASGSSTALLYSKRLITFQLRHILKARCDPVPAANGAIRFHCDPTFWAKNVVNLGNLVIESKPAPGYTPNVVVGQVPPGTNHISKTPGQINLAQLRLQHMQQQVYAQKHQQLQQMRMQQPPAPVPTTTTTTQQHPRQAAPQMLQQQPPRLISVQTMQRGNMNCGAFQAHQMRLAQNAARIPGIPRHSGPQYSMMQPHLQRQHSNPGHAGPFPVVSVHNTTINPTSPTTATMANANRGPTSPSVTAIELIPSVTNPENLPSLPDIPPIQLEDAGSSSLDNLLSRYISGSHLPPQPTSTMNPSPGPSALSPGSSGLSNSHTPVRPPSTSSTGSRGSCGSSGRTAEKTSLSFKSDQVKVKQEPGTEDEICSFSGGVKQEKTEDGRRSACMLSSPESSLTPPLSTNLHLESELDALASLENHVKIEPADMNESCKQSGLSSLVNGKSPIRSLMHRSARIGGDGNNKDDDPNEDWCAVCQNGGDLLCCEKCPKVFHLTCHVPTLLSFPSGDWICTFCRDIGKPEVEYDCDNLQHSKKGKTAQGLSPVDQRKCERLLLYLYCHELSIEFQEPVPASIPNYYKIIKKPMDLSTVKKKLQKKHSQHYQIPDDFVADVRLIFKNCERFNEMMKVVQVYADTQEINLKADSEVAQAGKAVALYFEDKLTEIYSDRTFAPLPEFEQEEDDGEVTEDSDEDFIQPRRKRLKSDERPVHIK

Legend:
Assay in all cases: co-IP
[1] = target: SMAD4 (immunoprecipitation) (UniProt Q13485)
[2] = target: SMAD4 (immunoprecipitation) (UniProt Q13485); remark: listed apart in the source
[3] = target: β-catenin (immunoprecipitation) (human) (UniProt P35222)

| Molecule | binding [1] | binding [2] | binding [3] |
| --- | --- | --- | --- |
| USP7 (cloned, immunoprecipitation) (from UniProt Q93009 1-1102) | binds |  |  |
| B1 |  | binds | binds |
| B2 |  | binds | binds |
